Molecules are shown by their SMILES. Like-named read-outs stand apart in the source and are kept apart here.

From patent publication US6528656B1, “Linear or cyclic aminophosphonates as pH markers in phosphorus 31 NMR spectroscopy” (Centre National de la Recherche Scientifique (CNRS), priority 1998, dated 2003) come the findings set out here.

The format of this data set is physicochemical.

Turning to `CCOP(=O)(OCC)C1(C)CCCN1` (centres unmarked) [Compound 1, 2-methyl-2-diethoxyphosphorylpyrrolidine], the “amplitude of the chemical shift variation” value is, setting by setting: (pH 4 to 10, 22° C. (difference of the printed limits)) 9.642; (pH 4 to 10, 37° C. (difference of the printed limits)) 9.649.
